Measured data: PubChem BioAssay AID686938 (Drosophila RNAi Screening Center, 2013)
Assay: 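Looking for CRAC channel components and the factors controlling them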 (primary screen). Cell system: Drosophila S2R+ cells. Reagent: long dsRNA against Drosophila genes, about 0.25 µg dsRNA per well, roughly 10,000 cells. Duration: 5 days of knock-down before the calcium assay. Treatment: thapsigargin (SERCA pump blocker) to empty calcium stores; entry signal taken 4 min after adding it. Read-out: 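Duplicate raw fluo-4 intensities per well from a plate reader, at rest and four minutes after thapsigargin emptied calcium stores; entry-to-rest ratio filled for only some wells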. Direction: calcium entry signal: higher = stronger calcium signal after store depletion; entry to resting ratio: higher = more calcium entry relative to resting level; resting calcium signal: higher = higher resting calcium signal. Hit rule: 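Hit if the duplicate-averaged plate z-score for entry over resting signal is under −3; wells with weak total dye signal (Fmax z < −2) or more than 5 off-targets removed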. Meaning of the calls: active = strongly reduced calcium entry; inactive = no strong reduction.
The screen tested about 23,000 reagents; this is an unselected part of those with a known target gene and a result. Over the whole deposit, 75 (0.33%) are marked active. 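Raw plate signals without normalisation; calls rest on plate z-scores that were not deposited; ratio present for only 364 wells.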 A number with no mark means an inactive call. The numbers tell different reagents against one gene apart. Names joined by + are all predicted targets of the reagent. Reagent sequences are not shown. The record does not give: the dose of the treatment.

gene	dsRNA no.	calcium entry signal, replicate 1 (fluorescence units)	calcium entry signal, replicate 2 (fluorescence units)	entry to resting ratio	resting calcium signal, replicate 1 (fluorescence units)	resting calcium signal, replicate 2 (fluorescence units)
CG6048	1	2.48e7	3.93e7		1.27e7	1.98e7
smo	1	3.94e7			2.25e7	
danr	1	4.58e7	4.27e7		2.29e7	1.75e7
Tdrd3	1	3.65e7	5.70e7		1.99e7	2.32e7
ATP6AP2	1	3.64e7	3.87e7		1.62e7	1.82e7
CG8187	1	2.67e7	2.81e7		1.22e7	1.37e7
CG42361	1	4.04e7	4.25e7		2.10e7	2.08e7
CG42597	1	2.95e7	5.21e7		1.47e7	2.14e7
CG17650	1	3.49e7	3.87e7		1.74e7	1.61e7
CG15196	1	2.64e7	3.82e7		1.44e7	1.83e7
ppk12	1	2.46e7	2.78e7		1.35e7	1.20e7
SWIP	1	3.96e7	2.40e7		2.03e7	1.06e7
sta	1	1.78e7	2.05e7	1.6	1.11e7	1.10e7
dnc	1	4.15e7	5.78e7	2	2.07e7	2.58e7
dnc	2	3.88e7	5.78e7	2.1	1.84e7	2.26e7
dnc	3	3.67e7	5.38e7	2	1.82e7	2.24e7
dnc	4	4.25e7	5.68e7	1.9	2.25e7	2.58e7
dnc	5	5.30e7	5.36e7	2.2	2.38e7	1.95e7
Skp2 + CG14645	1	3.01e7	5.11e7		1.49e7	2.39e7
Syt1	1	3.68e7	3.81e7		1.90e7	1.89e7
Syt1	2	3.93e7	3.07e7		2.04e7	1.60e7
Syt1	3	4.08e7	4.31e7		2.11e7	2.01e7
Syt1	4	3.76e7			1.94e7	
Syt1	5	4.13e7	8.16e7		2.02e7	3.31e7
Bro	1	3.73e7	4.40e7		1.95e7	1.93e7
CG30158	1	1.81e7	2.69e7		9.28e6	1.22e7
CG30158	2	3.92e7	3.04e7		1.78e7	1.46e7
CG30158	3	4.45e7	3.57e7		2.01e7	1.49e7
CG30158	4	4.75e7	3.31e7		2.01e7	1.52e7
Ziz	1	3.98e7	4.13e7		1.91e7	1.83e7
Ziz	2	3.77e7	3.41e7		1.83e7	1.57e7
Mtch	1	4.08e7	3.40e7		1.90e7	1.75e7
CG14356	1	2.11e7	5.19e7		1.10e7	6.67e7
mRpL13	1	4.12e7	4.03e7		1.87e7	1.58e7
CG11656	1	3.97e7	5.16e7		1.68e7	2.09e7
CG13532	1	4.04e7	4.47e7		2.03e7	2.14e7
asRNA:CR43477 + CG12256	1	3.62e7	2.66e7		1.84e7	1.46e7
CG14490	1	4.50e7	3.31e7		1.77e7	1.64e7
CG10581	1	3.38e7	4.93e7		1.58e7	2.13e7
PGAP5	1	3.06e7	4.11e7		1.42e7	1.62e7
Glo1	1	3.50e7	4.49e7		1.55e7	1.94e7
IleRS	1	2.23e7	3.25e7		1.18e7	2.57e7
RpS10b	1	3.80e7	3.48e7		2.10e7	1.82e7
Scp1	1	3.48e7	3.68e7		1.65e7	1.62e7
Scp1	2	3.59e7	4.41e7		1.54e7	1.90e7
Scp1	3	4.27e7	4.54e7		2.24e7	2.07e7
CG17107	1	3.45e7	4.23e7		1.76e7	1.99e7
CG17107	2	4.60e7	3.17e7		2.44e7	1.50e7
Nepl15	1	3.73e7	3.56e7		1.64e7	1.50e7
CG8611	1	2.66e7	3.78e7		1.31e7	1.52e7
CG17124	1	4.00e7	5.11e7		1.72e7	2.30e7
Pfrx	1	4.04e7	4.08e7		1.90e7	1.90e7
Pfrx	2	2.94e7	4.87e7		1.56e7	2.40e7
Drl-2	1	5.31e7	4.62e7		2.58e7	2.28e7
Drl-2	2	2.08e7	3.02e7		1.04e7	1.36e7
Drl-2	3	2.09e7	3.53e7		9.93e6	1.54e7
velo	1	2.87e7	3.86e7		1.51e7	1.87e7
velo	2	3.33e7	2.48e7		2.24e7	1.17e7

A run of entries from the list above, as a working copy:
gene	dsRNA no.	calcium entry signal, replicate 1 (fluorescence units)	calcium entry signal, replicate 2 (fluorescence units)	entry to resting ratio	resting calcium signal, replicate 1 (fluorescence units)	resting calcium signal, replicate 2 (fluorescence units)
PGAP5	1	3.06e7	4.11e7		1.42e7	1.62e7
Glo1	1	3.50e7	4.49e7		1.55e7	1.94e7
IleRS	1	2.23e7	3.25e7		1.18e7	2.57e7
